Results taken from PMC11361910.
Results are given in words; binding and its absence hold for the method and conditions named. In cells and extracts the contact can be indirect. Some results given as binding are weak or reduced against the parent protein; the word gives no strength. For some assays here: Tags and fused reporters may be left off the sequences shown.

Protein sequences, listed by entry. Tags and fused reporters are not part of them.
UniProt P35222: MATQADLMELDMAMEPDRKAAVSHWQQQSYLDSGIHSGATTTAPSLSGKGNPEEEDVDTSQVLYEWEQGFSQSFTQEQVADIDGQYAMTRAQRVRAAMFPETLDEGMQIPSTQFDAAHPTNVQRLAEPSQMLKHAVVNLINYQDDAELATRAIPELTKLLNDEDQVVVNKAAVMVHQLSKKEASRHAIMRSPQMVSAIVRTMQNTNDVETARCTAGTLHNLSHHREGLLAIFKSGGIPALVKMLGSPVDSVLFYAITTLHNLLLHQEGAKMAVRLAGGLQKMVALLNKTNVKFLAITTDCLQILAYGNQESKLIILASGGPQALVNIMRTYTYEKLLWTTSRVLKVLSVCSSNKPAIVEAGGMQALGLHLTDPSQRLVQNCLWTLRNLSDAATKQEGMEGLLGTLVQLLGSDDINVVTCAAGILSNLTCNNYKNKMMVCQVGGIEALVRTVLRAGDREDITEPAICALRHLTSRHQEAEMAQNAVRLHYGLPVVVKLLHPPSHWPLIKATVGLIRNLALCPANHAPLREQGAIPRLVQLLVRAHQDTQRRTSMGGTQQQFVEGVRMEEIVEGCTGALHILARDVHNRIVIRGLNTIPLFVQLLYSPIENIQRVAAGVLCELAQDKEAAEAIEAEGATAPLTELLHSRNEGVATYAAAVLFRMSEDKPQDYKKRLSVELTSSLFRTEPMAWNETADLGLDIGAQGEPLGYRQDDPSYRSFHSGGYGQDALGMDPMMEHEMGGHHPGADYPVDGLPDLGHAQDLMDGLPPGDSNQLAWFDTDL

Assays:
[1] = target: T1, endogenous IL13RA2 (human (endogenous in HemECs)) (UniProt Q14627); assay: co-IP; HemECs lysates; immunoprecipitation with antibodies to IL13RA2 and β-catenin; endogenous proteins
T1 sequence: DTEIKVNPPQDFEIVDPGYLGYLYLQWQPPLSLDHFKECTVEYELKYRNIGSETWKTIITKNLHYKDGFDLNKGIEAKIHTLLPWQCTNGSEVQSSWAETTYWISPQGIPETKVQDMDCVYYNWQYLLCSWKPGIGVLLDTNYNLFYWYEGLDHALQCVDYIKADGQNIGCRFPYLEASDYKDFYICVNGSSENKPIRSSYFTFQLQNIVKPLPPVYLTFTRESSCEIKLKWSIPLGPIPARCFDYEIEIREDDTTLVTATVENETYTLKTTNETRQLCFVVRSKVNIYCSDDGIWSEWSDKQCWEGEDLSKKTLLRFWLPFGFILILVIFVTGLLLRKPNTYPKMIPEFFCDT

[2] = target: T2, IL13RA2 (Flag-tagged) (UniProt Q14627); assay: co-IP; HEK293 cells transfected with Flag-tagged IL13RA2 or HA-tagged β-catenin expression vector; protein A/G agarose beads with anti-FLAG and anti-HA added to cell lysates
T2 sequence: T1 sequence

| binding [1] | binding [2] | Substance |
| --- | --- | --- |
| binds |  | endogenous β-catenin (from UniProt P35222 1-781) |
|  | binds | β-catenin (HA-tagged) (from UniProt P35222 1-781) |
